The values that follow come from paper PMC12635257.

By UniProt entry, the sequences of proteins in these tests, tags left out. Where a name states a change or a piece, a line headed by the entry shows the natural chain unless it says otherwise.
UniProt Q9HCE5: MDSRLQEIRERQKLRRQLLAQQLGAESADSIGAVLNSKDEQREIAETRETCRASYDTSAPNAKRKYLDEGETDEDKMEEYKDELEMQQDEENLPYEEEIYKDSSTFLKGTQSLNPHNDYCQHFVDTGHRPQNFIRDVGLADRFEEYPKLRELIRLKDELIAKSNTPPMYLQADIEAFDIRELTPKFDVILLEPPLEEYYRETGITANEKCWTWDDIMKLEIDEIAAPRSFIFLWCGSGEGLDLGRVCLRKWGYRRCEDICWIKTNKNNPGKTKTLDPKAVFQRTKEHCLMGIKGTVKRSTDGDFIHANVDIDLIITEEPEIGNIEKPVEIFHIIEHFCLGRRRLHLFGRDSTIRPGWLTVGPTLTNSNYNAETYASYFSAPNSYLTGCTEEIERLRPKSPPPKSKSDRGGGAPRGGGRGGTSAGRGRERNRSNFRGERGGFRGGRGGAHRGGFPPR
UniProt Q16637: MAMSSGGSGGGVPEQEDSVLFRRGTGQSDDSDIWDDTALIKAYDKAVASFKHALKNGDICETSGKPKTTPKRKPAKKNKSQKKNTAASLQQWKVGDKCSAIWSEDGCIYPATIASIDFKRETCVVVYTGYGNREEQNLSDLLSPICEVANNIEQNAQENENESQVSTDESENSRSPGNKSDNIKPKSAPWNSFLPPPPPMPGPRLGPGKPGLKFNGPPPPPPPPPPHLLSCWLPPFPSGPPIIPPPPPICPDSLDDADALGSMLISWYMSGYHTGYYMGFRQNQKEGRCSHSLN

Results are given in words; binding and its absence hold for the method and conditions named. In cells and extracts the contact can be indirect.

This assay deals with Flag-tagged arginine methylation-deficient (RK) mutant METTL14 of the co-IP of Fig. 2C (human) (UniProt Q9HCE5). Description: co-IP; HeLa cells transfected with Flag-tagged METTL14 (WT, RK, 1-400), METTL3 or WTAP; endogenous SMN detected by western blot; co-IP buffer 50 mM Tris-HCl pH 7.4, 150 mM NaCl, 15 mM MgCl2, 5 mM EDTA, 0.1% NP-40; also in siPRMT1 or siPRMT5 cells and in cells treated with MS023, EPZ015666 or both.

For the substance “SMN (endogenous) (from UniProt Q16637 1-294)”, the binding entry is “no binding”.
